# Some of the results follow. The data scatter; read single values as rough.
# The chains behind the UniProt entries cited, without tags or fusion partners. Where a name states a change or a piece, a line headed by the entry shows the natural chain unless it says otherwise. Residues count along the entry.
# UniProt Q8N371: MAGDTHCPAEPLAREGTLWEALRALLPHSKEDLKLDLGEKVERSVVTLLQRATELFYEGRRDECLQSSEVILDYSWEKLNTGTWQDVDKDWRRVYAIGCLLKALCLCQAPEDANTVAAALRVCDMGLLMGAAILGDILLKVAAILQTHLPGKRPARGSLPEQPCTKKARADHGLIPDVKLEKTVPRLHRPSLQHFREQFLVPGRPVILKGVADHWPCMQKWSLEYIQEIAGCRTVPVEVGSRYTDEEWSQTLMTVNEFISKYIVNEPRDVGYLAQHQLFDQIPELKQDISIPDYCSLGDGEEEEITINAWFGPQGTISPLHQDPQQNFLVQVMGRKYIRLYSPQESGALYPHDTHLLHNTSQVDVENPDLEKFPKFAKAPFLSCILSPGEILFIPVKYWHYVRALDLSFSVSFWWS
# UniProt O15037: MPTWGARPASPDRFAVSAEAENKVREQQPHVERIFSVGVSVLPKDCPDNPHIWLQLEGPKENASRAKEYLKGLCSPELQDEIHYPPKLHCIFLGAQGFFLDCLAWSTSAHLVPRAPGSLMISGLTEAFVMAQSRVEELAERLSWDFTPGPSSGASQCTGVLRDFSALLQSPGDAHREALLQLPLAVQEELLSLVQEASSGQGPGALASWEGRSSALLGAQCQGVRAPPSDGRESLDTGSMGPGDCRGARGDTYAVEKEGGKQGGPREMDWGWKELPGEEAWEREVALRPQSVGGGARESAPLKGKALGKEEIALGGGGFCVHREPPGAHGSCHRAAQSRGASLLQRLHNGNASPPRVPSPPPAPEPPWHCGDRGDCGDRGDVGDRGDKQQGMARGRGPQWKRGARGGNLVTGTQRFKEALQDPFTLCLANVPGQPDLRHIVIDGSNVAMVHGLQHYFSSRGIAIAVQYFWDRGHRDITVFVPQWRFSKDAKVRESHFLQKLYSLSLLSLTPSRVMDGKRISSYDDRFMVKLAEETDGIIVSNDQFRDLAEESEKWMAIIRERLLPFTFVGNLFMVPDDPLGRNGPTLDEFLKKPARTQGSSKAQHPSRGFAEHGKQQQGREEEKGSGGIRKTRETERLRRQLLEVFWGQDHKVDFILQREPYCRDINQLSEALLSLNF
# UniProt Q5T5P2: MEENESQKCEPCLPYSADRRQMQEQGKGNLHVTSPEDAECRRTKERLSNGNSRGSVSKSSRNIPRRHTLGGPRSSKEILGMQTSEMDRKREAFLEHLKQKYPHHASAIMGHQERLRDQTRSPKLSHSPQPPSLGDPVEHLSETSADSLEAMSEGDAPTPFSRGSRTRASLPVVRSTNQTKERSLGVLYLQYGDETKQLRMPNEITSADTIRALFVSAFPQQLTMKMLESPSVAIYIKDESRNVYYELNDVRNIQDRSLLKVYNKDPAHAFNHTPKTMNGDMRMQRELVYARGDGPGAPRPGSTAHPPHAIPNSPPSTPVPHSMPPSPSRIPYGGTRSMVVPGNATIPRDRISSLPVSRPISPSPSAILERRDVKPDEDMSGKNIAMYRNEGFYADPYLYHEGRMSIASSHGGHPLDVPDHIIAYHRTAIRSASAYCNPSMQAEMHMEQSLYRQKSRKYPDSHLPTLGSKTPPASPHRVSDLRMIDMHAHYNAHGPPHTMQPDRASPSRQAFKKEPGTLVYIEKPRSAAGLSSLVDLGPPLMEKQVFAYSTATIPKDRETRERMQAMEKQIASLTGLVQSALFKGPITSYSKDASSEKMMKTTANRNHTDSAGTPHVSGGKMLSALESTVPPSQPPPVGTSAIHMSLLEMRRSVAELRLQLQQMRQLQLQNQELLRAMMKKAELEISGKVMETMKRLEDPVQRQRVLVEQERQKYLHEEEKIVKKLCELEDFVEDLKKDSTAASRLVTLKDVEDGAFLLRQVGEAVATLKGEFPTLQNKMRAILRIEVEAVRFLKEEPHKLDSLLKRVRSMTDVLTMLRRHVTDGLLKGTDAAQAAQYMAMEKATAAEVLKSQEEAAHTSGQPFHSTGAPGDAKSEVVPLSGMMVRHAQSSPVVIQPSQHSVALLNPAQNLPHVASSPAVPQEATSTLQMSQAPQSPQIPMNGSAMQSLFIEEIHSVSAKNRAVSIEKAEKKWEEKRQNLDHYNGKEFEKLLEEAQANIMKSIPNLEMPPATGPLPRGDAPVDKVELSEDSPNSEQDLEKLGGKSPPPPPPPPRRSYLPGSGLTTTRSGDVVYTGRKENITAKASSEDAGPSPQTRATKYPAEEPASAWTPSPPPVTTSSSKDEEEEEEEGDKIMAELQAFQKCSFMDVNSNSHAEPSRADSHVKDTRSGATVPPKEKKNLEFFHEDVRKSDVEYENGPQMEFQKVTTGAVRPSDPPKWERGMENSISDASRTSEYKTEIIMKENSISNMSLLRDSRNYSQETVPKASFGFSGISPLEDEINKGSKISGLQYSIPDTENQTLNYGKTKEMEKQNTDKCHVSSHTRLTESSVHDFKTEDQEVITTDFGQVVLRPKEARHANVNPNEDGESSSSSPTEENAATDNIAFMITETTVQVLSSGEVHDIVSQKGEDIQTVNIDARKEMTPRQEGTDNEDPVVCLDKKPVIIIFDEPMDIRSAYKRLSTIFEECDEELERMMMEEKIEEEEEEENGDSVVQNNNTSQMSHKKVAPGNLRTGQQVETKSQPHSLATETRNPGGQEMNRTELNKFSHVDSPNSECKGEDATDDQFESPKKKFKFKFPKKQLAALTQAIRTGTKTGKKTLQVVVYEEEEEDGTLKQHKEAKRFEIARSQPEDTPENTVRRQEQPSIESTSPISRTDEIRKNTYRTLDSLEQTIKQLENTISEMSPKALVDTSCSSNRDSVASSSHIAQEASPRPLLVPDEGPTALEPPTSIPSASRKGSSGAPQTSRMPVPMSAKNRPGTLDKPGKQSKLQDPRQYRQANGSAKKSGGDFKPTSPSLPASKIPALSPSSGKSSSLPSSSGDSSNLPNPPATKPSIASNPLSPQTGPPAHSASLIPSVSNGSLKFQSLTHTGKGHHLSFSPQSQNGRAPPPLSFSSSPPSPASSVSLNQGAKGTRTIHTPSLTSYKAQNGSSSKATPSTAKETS
# UniProt Q96AB3: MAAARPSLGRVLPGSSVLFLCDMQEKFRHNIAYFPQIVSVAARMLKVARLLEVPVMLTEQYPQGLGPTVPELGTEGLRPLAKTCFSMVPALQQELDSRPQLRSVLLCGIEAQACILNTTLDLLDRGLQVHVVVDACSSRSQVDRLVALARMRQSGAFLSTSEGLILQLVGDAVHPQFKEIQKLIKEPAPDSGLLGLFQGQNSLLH
# UniProt Q9Y4C1: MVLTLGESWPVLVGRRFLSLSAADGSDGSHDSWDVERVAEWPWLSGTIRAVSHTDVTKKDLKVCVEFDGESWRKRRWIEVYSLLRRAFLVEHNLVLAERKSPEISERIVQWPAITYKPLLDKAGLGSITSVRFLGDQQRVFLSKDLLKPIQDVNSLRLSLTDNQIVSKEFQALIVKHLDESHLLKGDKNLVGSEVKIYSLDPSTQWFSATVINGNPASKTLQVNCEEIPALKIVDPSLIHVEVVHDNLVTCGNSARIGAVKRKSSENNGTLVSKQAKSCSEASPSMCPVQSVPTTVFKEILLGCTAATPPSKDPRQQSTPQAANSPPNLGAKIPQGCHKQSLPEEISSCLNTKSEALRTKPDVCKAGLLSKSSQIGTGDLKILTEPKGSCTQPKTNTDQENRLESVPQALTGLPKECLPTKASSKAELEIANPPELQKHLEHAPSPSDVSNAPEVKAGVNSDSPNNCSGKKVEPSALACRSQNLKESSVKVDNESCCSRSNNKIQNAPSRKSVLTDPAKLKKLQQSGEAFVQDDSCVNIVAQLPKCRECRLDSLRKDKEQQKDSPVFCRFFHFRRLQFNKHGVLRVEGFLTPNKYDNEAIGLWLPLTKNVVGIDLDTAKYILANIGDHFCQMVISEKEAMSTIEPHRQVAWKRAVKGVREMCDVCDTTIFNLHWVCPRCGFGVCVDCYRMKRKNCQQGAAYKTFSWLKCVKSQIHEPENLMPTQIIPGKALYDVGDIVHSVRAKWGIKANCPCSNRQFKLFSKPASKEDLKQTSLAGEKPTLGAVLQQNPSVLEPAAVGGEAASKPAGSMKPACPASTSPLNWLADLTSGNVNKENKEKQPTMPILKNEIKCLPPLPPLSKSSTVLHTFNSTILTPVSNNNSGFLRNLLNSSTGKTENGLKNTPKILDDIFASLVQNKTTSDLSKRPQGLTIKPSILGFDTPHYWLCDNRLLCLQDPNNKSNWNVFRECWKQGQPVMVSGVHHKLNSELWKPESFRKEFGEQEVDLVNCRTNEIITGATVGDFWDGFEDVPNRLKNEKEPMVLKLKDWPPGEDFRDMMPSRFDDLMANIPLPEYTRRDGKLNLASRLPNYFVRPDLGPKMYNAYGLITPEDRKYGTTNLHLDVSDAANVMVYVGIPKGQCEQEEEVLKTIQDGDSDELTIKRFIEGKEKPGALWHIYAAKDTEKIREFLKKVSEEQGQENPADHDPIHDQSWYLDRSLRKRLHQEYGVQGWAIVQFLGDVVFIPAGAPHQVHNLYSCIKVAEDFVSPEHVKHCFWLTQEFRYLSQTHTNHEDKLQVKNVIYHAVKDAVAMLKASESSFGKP
# UniProt Q9Y6Y0, 266-286: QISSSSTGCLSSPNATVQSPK
# UniProt Q7LBC6: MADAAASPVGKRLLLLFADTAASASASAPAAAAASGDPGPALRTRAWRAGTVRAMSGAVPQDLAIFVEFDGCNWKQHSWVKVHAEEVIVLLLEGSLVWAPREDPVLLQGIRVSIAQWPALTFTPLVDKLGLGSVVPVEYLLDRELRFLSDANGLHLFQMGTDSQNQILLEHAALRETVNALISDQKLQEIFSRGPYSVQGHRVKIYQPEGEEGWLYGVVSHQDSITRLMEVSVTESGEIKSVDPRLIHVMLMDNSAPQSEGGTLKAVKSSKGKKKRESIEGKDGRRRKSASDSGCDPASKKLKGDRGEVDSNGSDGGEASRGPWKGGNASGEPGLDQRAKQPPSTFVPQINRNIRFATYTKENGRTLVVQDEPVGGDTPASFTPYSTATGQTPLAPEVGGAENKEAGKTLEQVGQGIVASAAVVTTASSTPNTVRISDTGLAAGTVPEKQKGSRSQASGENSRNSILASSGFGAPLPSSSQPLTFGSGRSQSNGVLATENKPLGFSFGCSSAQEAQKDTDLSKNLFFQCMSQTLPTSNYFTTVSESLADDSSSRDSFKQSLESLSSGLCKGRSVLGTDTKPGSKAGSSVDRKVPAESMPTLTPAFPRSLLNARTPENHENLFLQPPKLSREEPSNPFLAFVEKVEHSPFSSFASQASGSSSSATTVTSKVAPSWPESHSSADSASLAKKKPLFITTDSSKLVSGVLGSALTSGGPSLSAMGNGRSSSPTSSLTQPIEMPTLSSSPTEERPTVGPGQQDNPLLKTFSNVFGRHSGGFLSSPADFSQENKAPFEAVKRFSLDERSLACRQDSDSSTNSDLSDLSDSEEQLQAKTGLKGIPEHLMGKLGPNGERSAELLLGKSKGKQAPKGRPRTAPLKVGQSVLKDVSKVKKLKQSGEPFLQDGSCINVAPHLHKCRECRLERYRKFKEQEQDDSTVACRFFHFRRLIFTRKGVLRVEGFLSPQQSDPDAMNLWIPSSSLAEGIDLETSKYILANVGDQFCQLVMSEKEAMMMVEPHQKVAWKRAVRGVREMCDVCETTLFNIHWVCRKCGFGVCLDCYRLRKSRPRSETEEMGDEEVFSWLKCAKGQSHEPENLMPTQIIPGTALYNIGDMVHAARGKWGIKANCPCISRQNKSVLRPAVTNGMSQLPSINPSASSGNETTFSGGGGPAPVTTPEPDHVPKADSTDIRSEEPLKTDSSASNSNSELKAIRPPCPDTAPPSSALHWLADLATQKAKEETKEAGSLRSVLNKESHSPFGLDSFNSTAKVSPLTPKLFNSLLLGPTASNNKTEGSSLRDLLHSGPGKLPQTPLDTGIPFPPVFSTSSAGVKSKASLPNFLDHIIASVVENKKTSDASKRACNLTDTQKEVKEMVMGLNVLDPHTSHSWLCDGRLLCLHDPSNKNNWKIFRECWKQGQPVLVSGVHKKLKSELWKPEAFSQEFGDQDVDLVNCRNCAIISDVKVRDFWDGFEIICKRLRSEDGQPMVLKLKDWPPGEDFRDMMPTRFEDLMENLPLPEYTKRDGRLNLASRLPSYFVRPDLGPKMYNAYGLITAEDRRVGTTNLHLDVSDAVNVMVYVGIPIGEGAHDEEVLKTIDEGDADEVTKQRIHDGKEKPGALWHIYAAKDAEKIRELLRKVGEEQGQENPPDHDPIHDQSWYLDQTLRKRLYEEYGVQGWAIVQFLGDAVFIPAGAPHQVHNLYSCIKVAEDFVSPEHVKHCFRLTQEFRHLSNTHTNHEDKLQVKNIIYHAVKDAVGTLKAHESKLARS
# UniProt Q9NXV2: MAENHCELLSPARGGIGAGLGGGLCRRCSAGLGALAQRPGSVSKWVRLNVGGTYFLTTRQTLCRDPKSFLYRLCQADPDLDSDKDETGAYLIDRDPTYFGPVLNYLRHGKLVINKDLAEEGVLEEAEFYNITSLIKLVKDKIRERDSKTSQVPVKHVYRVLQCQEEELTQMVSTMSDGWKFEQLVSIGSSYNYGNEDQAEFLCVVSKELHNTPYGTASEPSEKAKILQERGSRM
# Compound: ClCC(=O)N[C@@H]1CCCc2ccccc12
# Test: log2 mean competition ratio of IA-DTB cysteine labelling (DMSO/compound) (log2 ratio); higher = stronger cysteine engagement by compound
# Details: 50 µM; treatment time: 4 h; cell line lysate: HEK293T
# Experimental: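 IA-DTB competitive cysteine chemoproteomics in HEK293T RIPA lysate. Lysates were treated with compound 29 or 30 at 50 or 200 µM for 4 h, then IA-DTB (500 µM, 1 h), trypsin-digested, NeutrAvidin-enriched and analysed by diaPASEF. Competition ratio = intensity DMSO / intensity compound (n=4 treated, n=64 DMSO); binding: mean log2 CR ≥ 1 and p ≤ 0.05 plus QC filters. Target is the cysteine site.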
row,Target,log2 mean competition ratio
1,JAK1 C827 (UniProt P23458),0.303
2,KIF17 C872,-0.00356
3,KAT5 C139 (UniProt Q92993),-0.187
4,KDM8 C7 (UniProt Q8N371),-0.243
5,ITPR1 C1197 (UniProt Q14643),0.0727
6,KIF21A C204,-0.106
7,KHNYN C46 (UniProt O15037),0.589
8,KIAA1107 C515,-0.0165
9,KIAA1217 C726 (UniProt Q5T5P2),0.182
10,KDM5C C305 (UniProt P41229),-0.0512
11,KAT6A C33,0.0313
12,KANSL1 C208 (UniProt Q7Z3B3),0.268
13,KIAA1107 C1071,0.158
14,KIAA1217 C1693 (UniProt Q5T5P2),-0.00337
15,ISOC2 C136 (UniProt Q96AB3),0.658
16,KIF20A C809 (UniProt O95235),0.604
17,KHNYN C221 (UniProt O15037),0.215
18,KDM3A C1140 (UniProt Q9Y4C1),0.0113

row,Target,log2 mean competition ratio
1,KDM8 C99 (UniProt Q8N371),0.426
2,ITPR2 C253 (UniProt Q14571),0.0128
3,IVNS1ABP C274 (UniProt Q9Y6Y0),-0.358
4,KIF11 C740 (UniProt P52732),-0.35
5,KANK1 C317 (UniProt Q14678),0.0434
6,JPH1 C101 (UniProt Q9HDC5),-0.177
7,KDM3B C295 (UniProt Q7LBC6),-0.267
8,KDM3B C569 (UniProt Q7LBC6),0.237
9,KCTD5 C28 (UniProt Q9NXV2),0.497
10,KIF22 C65 (UniProt Q14807),-0.0582
11,KIF21A C1437,-0.339
12,IRF2BPL C445 (UniProt Q9H1B7),-0.205
13,KIF14 C508 (UniProt Q15058),-0.0491
14,KDM2A C443 (UniProt Q9Y2K7),0.0329
15,KIF21B C203 (UniProt O75037),-0.341
16,KIF11 C734 (UniProt P52732),0.22
17,KDM3A C390 (UniProt Q9Y4C1),-0.297
18,KIF23 C412 (UniProt Q02241),-0.465

# Same assay, conditions: 200 µM; treatment time: 4 h; cell line lysate: HEK293T
row,Target,log2 mean competition ratio
1,JAK1 C827 (UniProt P23458),0.587
2,KIF17 C872,0.0204
3,KAT5 C139 (UniProt Q92993),0.461
4,KDM8 C7 (UniProt Q8N371),-0.056
5,ITPR1 C1197 (UniProt Q14643),-0.0582
6,KIF21A C204,0.132
7,KIAA1522 C321 (UniProt Q9P206),-0.358
8,KHNYN C46 (UniProt O15037),0.329
9,KIAA1107 C515,0.317
10,KIAA1217 C726 (UniProt Q5T5P2),0.204
11,KDM5C C305 (UniProt P41229),-0.105
12,KAT6A C33,0.183
13,KANSL1 C208 (UniProt Q7Z3B3),-0.277
14,KIAA1107 C1071,-0.164
15,KIAA1217 C1693 (UniProt Q5T5P2),0.301
16,ISOC2 C136 (UniProt Q96AB3),1.24
17,KIF20A C809 (UniProt O95235),0.46
18,KHNYN C221 (UniProt O15037),0.121
19,KDM3A C1140 (UniProt Q9Y4C1),0.103

row,Target,log2 mean competition ratio
1,KDM8 C99 (UniProt Q8N371),-0.0697
2,ITPR2 C253 (UniProt Q14571),0.143
3,IVNS1ABP C274 (UniProt Q9Y6Y0),-0.144
4,KIF11 C740 (UniProt P52732),-0.169
5,KANK1 C317 (UniProt Q14678),0.0972
6,JPH1 C101 (UniProt Q9HDC5),-0.0602
7,KDM3B C295 (UniProt Q7LBC6),0.142
8,KDM3B C569 (UniProt Q7LBC6),0.459
9,KCTD5 C28 (UniProt Q9NXV2),-0.257
10,KIF22 C65 (UniProt Q14807),0.267
11,KIF21A C1437,-0.197
12,IRF2BPL C445 (UniProt Q9H1B7),0.0972
13,KIF14 C508 (UniProt Q15058),-0.2
14,KDM2A C443 (UniProt Q9Y2K7),0.335
15,KIF21B C203 (UniProt O75037),0.601
16,KIF11 C734 (UniProt P52732),-0.0808
17,KDM3A C390 (UniProt Q9Y4C1),0.281
18,KIF23 C412 (UniProt Q02241),-0.595

# Source: the supplement of paper PMC11732987, “Enantioselective OTUD7B fragment discovery through chemoproteomics screening and high-throughput optimisation” (Communications Chemistry, 2025)
